Part of at least one peptide drawing is inferred or uncertain, most often the ends.
Assays:
Type in all cases: biochemical
[1] = test system: conditioned medium of E. coli SF103 (ptr gene disrupted); experiment: Proteolytic degradation of sCTgly in conditioned medium of UGL178 (SF103, ptr disrupted)
[2] = biological target: T1, E. coli metalloprotease (protease III) in conditioned fermentation medium (Escherichia coli, UniProt P05458); experiment: Degradation of sCTgly spiked into 18 hr post induction harvested fermentation medium; settings: for sCTgly concentration: 18 hr post induction medium, 30° C.
T1 construct: E. coli Protease III is a periplasmic/extracellular zinc metalloprotease; endogenous in cells; host or cells: E. coli BLR (UGL703 / UGL165), cell-free conditioned fermentation medium

Amino acid sequences for entries named in this document (tags omitted). Residues count along the entry.
UniProt P05458, 24-962: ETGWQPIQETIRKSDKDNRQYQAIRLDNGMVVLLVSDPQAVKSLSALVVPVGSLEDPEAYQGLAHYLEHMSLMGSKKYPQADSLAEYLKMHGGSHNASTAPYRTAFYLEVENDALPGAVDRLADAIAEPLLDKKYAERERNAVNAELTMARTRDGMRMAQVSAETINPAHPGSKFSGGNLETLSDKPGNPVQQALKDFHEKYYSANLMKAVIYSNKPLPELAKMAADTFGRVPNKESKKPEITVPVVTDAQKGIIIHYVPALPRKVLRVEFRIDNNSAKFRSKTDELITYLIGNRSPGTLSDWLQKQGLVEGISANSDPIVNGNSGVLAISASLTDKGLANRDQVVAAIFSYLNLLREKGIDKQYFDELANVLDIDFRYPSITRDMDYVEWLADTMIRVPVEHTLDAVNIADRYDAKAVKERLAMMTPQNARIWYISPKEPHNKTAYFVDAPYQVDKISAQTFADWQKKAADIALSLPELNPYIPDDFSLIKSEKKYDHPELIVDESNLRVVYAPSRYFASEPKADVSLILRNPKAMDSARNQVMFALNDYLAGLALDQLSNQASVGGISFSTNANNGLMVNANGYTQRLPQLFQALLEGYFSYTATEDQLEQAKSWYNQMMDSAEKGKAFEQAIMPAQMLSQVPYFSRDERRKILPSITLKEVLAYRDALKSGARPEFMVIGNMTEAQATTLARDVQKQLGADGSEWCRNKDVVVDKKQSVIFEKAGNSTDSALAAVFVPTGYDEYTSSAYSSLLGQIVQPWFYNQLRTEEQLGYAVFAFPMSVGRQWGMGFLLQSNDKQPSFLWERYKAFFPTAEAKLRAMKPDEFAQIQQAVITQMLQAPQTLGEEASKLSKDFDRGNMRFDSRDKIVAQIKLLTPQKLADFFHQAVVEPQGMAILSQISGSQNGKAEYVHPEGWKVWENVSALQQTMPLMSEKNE

[3] = biological target: T2, E. coli Protease III (zinc metalloprotease) in fermentation medium (Escherichia coli, UniProt P05458); experiment: Divalent cation specificity of sCTgly degradation in fermentation medium (EDTA, MgCl2, ZnCl2); settings: for sCTgly: 30° C.
T2 construct: E. coli Protease III is a periplasmic/extracellular zinc metalloprotease; endogenous in cells; host or cells: E. coli BLR (UGL703 / UGL165), cell-free conditioned fermentation medium

[4] = biological target: T3, conditioned medium of E. coli KS272 (wild type ptr gene) (Escherichia coli, UniProt P05458); experiment: Proteolytic degradation of sCTgly in conditioned medium of UGL177 (KS272, wild type ptr)
T3 construct: KS272 is the parental strain of SF 103, which carries the wild type ptr gene; endogenous in cells; host or cells: E. coli KS272 + pSCT 029 (UGL177), conditioned medium 4 hr post feed

[5] = biological target: T1, E. coli metalloprotease (protease III) in conditioned fermentation medium; experiment: Degradation of sCTgly spiked into conditioned medium of UGL703 fermentation (26 hr sample), CEX HPLC; settings: for % Intact / % loss from prev hr / sCTgly: 30° C.
[6] = UGL178 4 hr medium, room temperature, 0.0 hrs
[7] = UGL178 4 hr medium, room temperature, 0.0 hrs + EDTA (50 mM)
[8] = UGL178 4 hr medium, room temperature, 20.0 hrs
[9] = UGL178 4 hr medium, room temperature, 20.0 hrs + EDTA (50 mM)
[10] = UGL178 medium from fermentation spiked with sCTgly (*), 0.0 hrs
[11] = UGL178 medium from fermentation spiked with sCTgly (*), 0.0 hrs + EDTA
[12] = UGL178 medium from fermentation spiked with sCTgly (*), 20.0 hrs
[13] = UGL178 medium from fermentation spiked with sCTgly (*), 20.0 hrs + EDTA
[14] = UGL177 4 hr medium, room temperature, 0.0 hrs
[15] = UGL177 4 hr medium, room temperature, 0.0 hrs + EDTA (50 mM)
[16] = UGL177 4 hr medium, room temperature, 20.0 hrs
[17] = UGL177 4 hr medium, room temperature, 20.0 hrs + EDTA (50 mM)
[18] = UGL177 medium from fermentation spiked with sCTgly (*), 0.0 hrs
[19] = UGL177 medium from fermentation spiked with sCTgly (*), 0.0 hrs + EDTA
[20] = UGL177 medium from fermentation spiked with sCTgly (*), 20.0 hrs
[21] = UGL177 medium from fermentation spiked with sCTgly (*), 20.0 hrs + EDTA
[22] = 50 mM EDTA treated medium sample, t = 0 minutes
[23] = 50 mM EDTA treated medium sample, t = 60 minutes
[24] = 50 mM EDTA treated medium sample, t = 120 minutes
[25] = 50 mM EDTA treated medium sample, t = 180 minutes
[26] = control fermentation medium sample, t = 0 minutes
[27] = control fermentation medium sample, t = 60 minutes
[28] = control fermentation medium sample, t = 120 minutes
[29] = control fermentation medium sample, t = 180 minutes

CC(C)C[C@H](NC(=O)[C@H](CCCCN)NC(=O)CNC(=O)[C@H](CC(C)C)NC(=O)[C@@H](NC(=O)[C@@H]1CSSC[C@H](N)C(=O)N[C@@H](CO)C(=O)N[C@@H](CC(N)=O)C(=O)N[C@@H](CC(C)C)C(=O)N[C@@H](CO)C(=O)N[C@@H]([C@@H](C)O)C(=O)N1)C(C)C)C(=O)N[C@@H](CO)C(=O)N[C@@H](CCC(N)=O)C(=O)N[C@@H](CCC(=O)O)C(=O)N[C@@H](CC(C)C)C(=O)N[C@@H](Cc1c[nH]cn1)C(=O)N[C@@H](CCCCN)C(=O)N[C@@H](CC(C)C)C(=O)N[C@@H](CCC(N)=O)C(=O)N[C@H](C(=O)N[C@@H](Cc1ccc(O)cc1)C(=O)N1CCC[C@H]1C(=O)N[C@@H](CCCNC(=N)N)C(=O)N[C@H](C(=O)N[C@@H](CC(N)=O)C(=O)N[C@H](C(=O)NCC(=O)N[C@@H](CO)C(=O)NCC(=O)N[C@H](C(=O)N1CCC[C@H]1C(=O)NCC(=O)O)[C@@H](C)O)[C@@H](C)O)[C@@H](C)O)[C@@H](C)O [sCTgly]
% sCTgly loss [1, 6]: 0% | sCTgly [1, 6]: 233 mg/L | % sCTgly loss [1, 7]: 0% | sCTgly [1, 7]: 198 mg/L | % sCTgly loss [1, 8]: 10.1% | sCTgly [1, 8]: 210 mg/L | % sCTgly loss [1, 9]: 12.4% | sCTgly [1, 9]: 173 mg/L | % sCTgly loss [1, 10]: 0% | sCTgly [1, 10]: 346 mg/L | % sCTgly loss [1, 11]: 0% | sCTgly [1, 11]: 281 mg/L | % sCTgly loss [1, 12]: 8.7% | sCTgly [1, 12]: 316 mg/L | % sCTgly loss [1, 13]: 12.3% | sCTgly [1, 13]: 246 mg/L | sCTgly concentration ([2]; 0.0 hr): 185 mg/L | sCTgly concentration ([2]; 2.0 hr): 99 mg/L | sCTgly concentration ([2]; 4.0 hr): 65 mg/L | average degradation of sCTgly per hr ([2]; 18 hr sample, by the end of 4 hrs at 30° C.): 21% | peptide loss ([3]; EDTA + MgCl2, 4 hr incubation): 27% | peptide loss ([3]; EDTA + ZnCl2, 4 hr incubation): 72% | sCTgly ([3]; Medium + EDTA (50 mM), 0.0 hrs incubation): 295 mg/L | sCTgly ([3]; Medium + EDTA (50 mM), 1.0 hrs incubation): 223 mg/L | sCTgly ([3]; Medium + EDTA (50 mM), 2.0 hrs incubation): 211 mg/L | sCTgly ([3]; Medium + EDTA (50 mM), 4.0 hrs incubation): 193 mg/L | sCTgly ([3]; Medium + EDTA + MgCl2 (15 mM), 0.0 hrs incubation): 241 mg/L | sCTgly ([3]; Medium + EDTA + MgCl2 (15 mM), 1.0 hrs incubation): 219 mg/L | sCTgly ([3]; Medium + EDTA + MgCl2 (15 mM), 2.0 hrs incubation): 199 mg/L | sCTgly ([3]; Medium + EDTA + MgCl2 (15 mM), 4.0 hrs incubation): 175 mg/L | sCTgly ([3]; Medium + EDTA + ZnCl2 (15 mM), 0.0 hrs incubation): 244 mg/L | sCTgly ([3]; Medium + EDTA + ZnCl2 (15 mM), 1.0 hrs incubation): 194 mg/L | sCTgly ([3]; Medium + EDTA + ZnCl2 (15 mM), 2.0 hrs incubation): 140 mg/L | sCTgly ([3]; Medium + EDTA + ZnCl2 (15 mM), 4.0 hrs incubation): 67 mg/L | sCTgly ([3]; Medium alone, 0.0 hrs incubation): 175 mg/L | sCTgly ([3]; Medium alone, 1.0 hrs incubation): 155 mg/L | sCTgly ([3]; Medium alone, 2.0 hrs incubation): 103 mg/L | sCTgly ([3]; Medium alone, 4.0 hrs incubation): 23 mg/L | loss of sCTgly ([3]; medium pre-treated with EDTA, 4 hr incubation): 34% | sCTgly degraded ([3]; untreated control medium, after the 4 hr incubation): 87% | % sCTgly loss [4, 14]: 0% | sCTgly [4, 14]: 226 mg/L | % sCTgly loss [4, 15]: 0% | sCTgly [4, 15]: 204 mg/L | % sCTgly loss [4, 16]: 42.8% | sCTgly [4, 16]: 129 mg/L | % sCTgly loss [4, 17]: 20.9% | sCTgly [4, 17]: 161 mg/L | % sCTgly loss [4, 18]: 0% | sCTgly [4, 18]: 323 mg/L | % sCTgly loss [4, 19]: 0% | sCTgly [4, 19]: 268 mg/L | % sCTgly loss [4, 20]: 34.3% | sCTgly [4, 20]: 212 mg/L | % sCTgly loss [4, 21]: 18% | sCTgly [4, 21]: 219 mg/L | % Intact [5, 22]: 100% | % loss from prev hr [5, 22]: 0.0% | sCTgly [5, 22]: 214 mg/L | % Intact [5, 23]: 86% | % loss from prev hr [5, 23]: 14% | sCTgly [5, 23]: 184 mg/L | % Intact [5, 24]: 84% | % loss from prev hr [5, 24]: 2.7% | sCTgly [5, 24]: 179 mg/L | % Intact [5, 25]: 79% | % loss from prev hr [5, 25]: 5.9% | sCTgly [5, 25]: 168 mg/L | rate of degradation of extracellular sCTgly ([5]; 18-26 hr post induction phase of the direct expression fermentation): up to 25 % per hr | % Intact [5, 26]: 100% | % loss from prev hr [5, 26]: 0.0% | sCTgly [5, 26]: 241 mg/L | % Intact [5, 27]: 75% | % loss from prev hr [5, 27]: 25% | sCTgly [5, 27]: 181 mg/L | % Intact [5, 28]: 58% | % loss from prev hr [5, 28]: 23.6% | sCTgly [5, 28]: 140 mg/L | % Intact [5, 29]: 44% | % loss from prev hr [5, 29]: 23.6% | sCTgly [5, 29]: 107 mg/L
